# Out of some 300,000 compounds screened, about 5,400 (1.8%) were called active. The shares of active, inactive and inconclusive entries below differ from those in the screen. Calls come from the whole dose curve; tested in HEK293 cells. Where the call is inconclusive, the potency comes from a doubtful curve fit.
# Experiment: qHTS for inhibitors of binding or entry into cells for Marburg Virus
# Details: Marburg virus pseudotyped entry inhibition, cell reporter; activity change, negative = inhibition: at 37.8 µM (top of the series) unless noted
# % is set by controls: 0 for no effect and ±100 for the full control effect; potency is the fitted concentration of half-maximal effect.
Structure (SMILES),Potency,"activity change, negative = inhibition"
Cc1nn2c(-c3cccc(NC(=O)c4ccco4)c3)nnc2c2ccccc12,inactive,–
Cc1sc2ncn(CC(=O)N3CCN(c4cccc(Cl)c4)CC3)c(=O)c2c1S(=O)(=O)N1CCC(C)CC1,"inconclusive: 35.5 µM [inhibitor, single point]",–
COc1ccc(/C=N/Nc2ccccn2)cc1OC,"inconclusive: 5.01 µM [activator, partial curve, poor fit]",–
Cc1cc(C)c(C(=O)N2CCCC(N3CCN(c4ccc(F)cc4)CC3)C2)o1 (configuration not stated),"inconclusive: 22.4 µM [inhibitor, single point]",–
O=C(CCC1CCCN(C(=O)C2(c3ccccc3)CC2)C1)N1CCN(c2ccccn2)CC1 (configuration not stated),"inconclusive: 14.1 µM [inhibitor, single point]",–
COc1ccc(Br)c(C(=O)NNC(=O)c2ccc(NS(=O)(=O)c3cccs3)cc2)c1,"inconclusive: 2 µM [activator, single point]",–
O=C(c1ccc(-c2cccc(C(F)(F)F)c2)o1)N1CCN(c2ccccc2O)CC1,"inconclusive: 0.316 µM [inhibitor, partial curve, poor fit]",–
NNC(=O)/C(=N/Nc1ccccc1)S(=O)(=O)c1ccc(Cl)cc1,"inconclusive: 11.2 µM [inhibitor, partial curve, poor fit]",–
Cc1nnc(NC(=O)c2ccc3ccccc3c2)s1,"inconclusive: 6.31 µM [activator, single point]",–
Clc1ccccc1-c1nc(N/N=C/c2cccnc2)c2ccccc2n1,"inconclusive: 1.41 µM [activator, partial curve, poor fit]",–
Cc1ccc(-n2nc3c([n+]2[O-])CCc2c-3no[n+]2[O-])cc1,"inconclusive: 0.58 µM [inhibitor, full curve, poor fit]",–
CCCC(=O)NC(c1ccco1)c1c(O)ccc2ccccc12 (configuration not stated),"inconclusive: 29.1 µM [inhibitor, single point]",–
Cc1ccccc1C(=O)Nc1cccc(NC(=O)c2ccc(F)cc2)c1,"inconclusive: 20 µM [inhibitor, partial curve, poor fit]",–
CC(C)c1nnc(NC(=O)c2cccc(-n3cnnn3)c2)s1,"inconclusive: 12.6 µM [activator, partial curve, poor fit]",–
Cc1cc(C)nc(NC(=O)c2ccc(Cl)cc2Cl)n1,–,inactive: -3.93% [at 46.1 µM]
COc1ccccc1CC(=O)Nc1c[nH]c(=O)[nH]c1=O,"inconclusive: 8.91 µM [activator, partial curve]",–
CCOC(=O)c1cccc(Nc2nc(-c3cccnc3)nc3ccccc23)c1,"inconclusive: 7.94 µM [inhibitor, partial curve, poor fit]",–
O=C(Nc1nsc(-c2ccccc2)n1)c1cccs1,"inconclusive: 10 µM [inhibitor, partial curve, poor fit]",–
COc1ccc2cc3cc(C(=O)NCCN4CCc5ccccc5C4)oc3nc2c1,–,inactive: -16.8%
Fc1ccc(NCc2ccccc2-c2nnc(-c3ccccc3Cl)o2)cc1Cl,"inconclusive: 11.2 µM [activator, partial curve, poor fit]",–
CC(=O)N1CCN(c2ccc(NC(=O)c3ccccc3)cc2)CC1,–,inactive: 25%
CCOC(=O)N1CCN(C(=O)c2ccc3c(=O)n(CCOC)c(=O)[nH]c3c2)CC1,"inconclusive: 0.708 µM [inhibitor, single point]",–
CC(N)c1cccc(Cl)c1Cl (configuration not stated),"inconclusive: 4.47 µM [inhibitor, full curve]",–

# Whole records as entered above.
# `CCOC(=O)c1cccc(Nc2nc(-c3cccnc3)nc3ccccc23)c1` as listed: Potency: inconclusive: 7.94 µM [inhibitor, partial curve, poor fit]
# `O=C(Nc1nsc(-c2ccccc2)n1)c1cccs1` as listed: Potency: inconclusive: 10 µM [inhibitor, partial curve, poor fit]
# `Clc1ccccc1-c1nc(N/N=C/c2cccnc2)c2ccccc2n1` as listed: Potency: inconclusive: 1.41 µM [activator, partial curve, poor fit]

# Later entries.

Structure (SMILES),Potency,"activity change, negative = inhibition"
CC(CNC(=O)c1ccc(C(C)(C)C)cc1)CN(C)C (configuration not stated),"inconclusive: 5.62 µM [activator, single point]",–
O=C1SCCc2c1n(Cc1ccccc1)c1ccccc21,"inconclusive: 1.26 µM [activator, single point]",–
CC(=O)Nc1ccc2c(c1)C(N1CC3CCC(CC3)C1)c1ccccc1-2 (configuration not stated),"inconclusive: 35.5 µM [inhibitor, single point]",–
Cc1cccc(-c2ncc(CN3CCN(CC(C)C)C(CCO)C3)cn2)c1 (configuration not stated),–,inactive: 3.78% [at 46.1 µM]
COc1cc(C)ccc1OCCSc1nc2ccc(NC(=O)c3ccccc3F)cc2s1,"inconclusive: 6.31 µM [inhibitor, single point]",–
CCOC(=O)N1CCN(C(=O)c2cnn3c(C(F)(F)F)cc(-c4cccs4)nc23)CC1,"inconclusive: 6.31 µM [inhibitor, single point]",–
CSc1ccc(CNc2ccc(C)cc2)cc1,–,inactive: 0.306%
CCn1nnc2sc3c(c2c1=O)CCC(C)C3 (configuration not stated),–,inactive: 5.57% [at 46.1 µM]
CCc1ccc(C(=O)Nc2ccc3nc(C)ccc3c2)cc1,"inconclusive: 1.12 µM [activator, partial curve, poor fit]",–
CCCC1=C/C(=C/c2ccc(-c3ccccc3OC)o2)C(=O)O1,–,inactive: 17.8%
COc1ccc(C(=O)CCS(=O)(=O)c2ccc(C)cc2)cc1OC,"inconclusive: 12.6 µM [inhibitor, partial curve, poor fit]",–
O=C(Nc1cccc(F)c1)NC1CCCCC1,"inconclusive: 1.83 µM [activator, full curve, poor fit]",–
O=C(CCl)Nc1ccccc1Sc1ccccc1,"inconclusive: 14.1 µM [inhibitor, single point]",–
N#C/C(=C/N1CCOCC1)c1ccccc1,"inconclusive: 1.78 µM [activator, full curve, poor fit]",–
Cc1ccccc1NC(=O)C(=O)c1cn(C)c2ccccc12,"inconclusive: 10 µM [activator, partial curve, poor fit]",–
C=C(CCN1C=C(C(=O)OCC)C(c2ccccc2)NC1=O)c1ccccc1 (configuration not stated),–,inactive: 9.82% [at 14.2 µM]
O=C(NCc1ccccn1)c1cc2n(n1)C(C(F)(F)F)CC(c1ccco1)N2 (configuration not stated),–,inactive: 39.9%
Cc1ccc(S(=O)(=O)Nc2ncnc3ccccc23)cc1,–,inactive: 20.7% [at 46.1 µM]
CC(=O)Nc1ccc(N/C=C(\C=O)c2nc3ccccc3o2)cc1,–,inactive: -3.89% [at 46.1 µM]
Cc1ccc(CNc2c(C=O)c(=O)[nH]c3ccccc23)cc1,"inconclusive: 2.82 µM [inhibitor, single point]",–
O=C(NCCCn1ccnc1)c1ccccc1F,"inconclusive: 10 µM [inhibitor, partial curve, poor fit]",–
COc1ccc(CCNCc2c(C(=O)O)c(C)n(Cc3cccc(C)c3)c2C)cc1OC,"inconclusive: 35.5 µM [activator, single point]",–
O=C(O)[C@@H]1C[C@H]1[C@@H](NP(=O)(c1ccccc1)c1ccccc1)c1ccccc1,–,inactive: 2.99%

Structure (SMILES),Potency,"activity change, negative = inhibition"
Cc1cc(C)nc(SC2CCCCC2NS(=O)(=O)c2ccccc2)n1 (configuration not stated),"inconclusive: 1.26 µM [activator, single point]",–
COc1cccc(/C=N/NC(=O)c2ccc([N+](=O)[O-])cc2Cl)c1O,"inconclusive: 29.1 µM [inhibitor, single point]",–
Cc1ccc(S(=O)(=O)N(C)c2ccc(C(=O)Nc3cccnc3)cc2)cc1,"inconclusive: 35.5 µM [inhibitor, single point]",–
COc1ccc(C(=O)NC2CCN(C(=S)Nc3ccccc3)CC2)cc1,"inconclusive: 0.562 µM [activator, full curve, poor fit]",–
CCOc1nc(C)ccc1-c1noc(-c2ccco2)n1,–,inactive: 11%
COC(=O)C1=C(C(=O)OC)SC2(S1)C(C(=O)OC)=C(C(=O)OC)Sc1c2ssc1=O,"inconclusive: 7.94 µM [inhibitor, partial curve, poor fit]",–
COc1ccc(C(C(=O)NC2CCCCC2)N(C(=O)c2ccccn2)c2cccnc2)cc1 (configuration not stated),–,inactive: -2.37% [at 46.1 µM]
CN(C)c1nc(NC(C)(C)C)nc(SCC(=O)Nc2ccccc2)n1,"inconclusive: 20 µM [inhibitor, single point]",–
COc1ccc(C(CNC(=O)c2ccc3c(c2)CCC3)N(C)C)cc1 (configuration not stated),"inconclusive: 35.5 µM [inhibitor, single point]",–
NC(=Nc1ccc(N)cc1)C(N)=Nc1ccc(N)cc1,"inconclusive: 0.631 µM [inhibitor, full curve, poor fit]",–
Cc1ccc(O)c(CN2CCN(c3ccccc3)CC2)c1,"inconclusive: 2.91 µM [activator, single point]",–
Cc1cnc(NC(=O)c2ccc(OCC3CCCO3)cc2)s1 (configuration not stated),"inconclusive: 2.24 µM [inhibitor, full curve, poor fit]",–
Cc1ccc(/C=C2\CCC3=C2OC(N)=C(C#N)C3c2ccc(C)cc2)cc1 (configuration not stated),–,inactive: 13.6%
CC(C)(C)c1ccc(C(=O)N2CCCC2c2cccs2)cc1 (configuration not stated),"inconclusive: 25.1 µM [inhibitor, single point]",–
O=C(NCCc1ccc(Cl)cc1)c1ccc(=O)[nH]c1,–,inactive: -0.778% [at 46.1 µM]
CCN(c1ccccc1)S(=O)(=O)c1cc(C(=O)NCC(c2ccco2)N2CCCCC2)ccc1C (configuration not stated),"inconclusive: 35.5 µM [inhibitor, single point]",–
COc1ccc(NC(=O)Cc2coc3cc(C)c(C(C)C)cc23)cc1S(=O)(=O)N1CCOCC1,"inconclusive: 11.2 µM [inhibitor, single point]",–
COC(=O)C1=C(C(=O)OC)[C@@H]2N(Cc3ccccc3)c3ccccc3[C@@]23CCC(=O)N(CC2CC2)C3=N1,"inconclusive: 0.596 µM [inhibitor, full curve, poor fit]",–
COc1ccccc1N1CCN(/N=C/c2ccc(OC)c(OC)c2OC)CC1,–,inactive: 2.48% [at 46.1 µM]
N#Cc1c(SCC(N)=O)nc2c(c1-c1ccc(O)cc1)CCCC2,"inconclusive: 29.1 µM [inhibitor, single point]",–
CCN(CC)S(=O)(=O)c1ccc(C(C)NCC(=O)Nc2ccccc2C(=O)NC2CC2)cc1 (configuration not stated),"inconclusive: 25.1 µM [inhibitor, single point]",–
